The list is a part of this screen's results and no random one: it gathers tests that were run many times, whatever their T/C, doses with no T/C, and many T/C values between a quarter and a half above the control. Further doses and runs are listed elsewhere. T/C is the treated group as % of the vehicle group. Some entries give survivors of the animals treated and no T/C: the source files T/C as zero there, which appears to mark a toxic dose or a test without result, not a measured value. Some survivor counts are full or nearly so, which does not show that the dose was tolerated: survival well below the control is almost never listed, so the zero probably covers shortened survival too. Survivors were counted at the toxicity check, usually on the fifth day, unless a day is given; later deaths do not show. Schedules are NCI's codes, taken here to give the interval after Q, in days (D) or hours (H), and the number of doses after X. Some doses were run more than once; their values stand side by side, smallest first. For survival time, the PubChem record calls one and a half times the control and up active, and a quarter to a half above the control has no call in these data; cut-offs in other NCI protocols can differ. Brackets with × count equal records among those shown. Some T/C values are followed by the survivors on the day toxicity was checked, most often the fifth; without a count, all were alive then.
Test system: BDF1 mice, intracerebral L1210 leukemia, survival T/C
Test: NCI In Vivo Anticancer Drug Screen. Data for tumor model L1210 Leukemia (intracerebral) in B6D2F1 (BDF1) mice
Details: higher T/C = longer survival
Experimental: The antitumor activity of compounds was measured in mice bearing transplantable tumors. Survival or tumor size were measured and the results are expressed as the measurement made in the treated group (T) divided by the measurement made in the vehicle treated control group (C). The tumor model used in this assay is L1210 Leukemia (intracerebral) in B6D2F1 (BDF1) mice

## OC(C1CO1)C(O)C1CO1 (stereo not given)
T/C endpoint: mean survival time, dose: 0.1 mg/kg/injection, schedule: Q04DX003 (ip), vehicle: saline
  survivor count: 2 of 10
T/C endpoint: mean survival time, dose: 0.12 mg/kg/injection, schedule: Q03HX024 (ip), vehicle: saline
  survivor count: 4 of 10
T/C endpoint: mean survival time, dose: 0.2 mg/kg/injection, schedule: Q01DX001 (ip), vehicle: saline
  survivor count: 3 of 10
T/C endpoint: mean survival time, dose: 0.2 mg/kg/injection, schedule: Q04DX003 (ip), vehicle: saline
  survivor count: 6 of 10
T/C endpoint: mean survival time, dose: 0.25 mg/kg/injection, schedule: Q01DX009 (ip), vehicle: saline
  survivor count: 6 of 10
T/C endpoint: mean survival time, dose: 0.25 mg/kg/injection, schedule: Q03HX008 (ip), vehicle: saline
  survivor count: 7 of 10
T/C endpoint: mean survival time, dose: 0.25 mg/kg/injection, schedule: Q03HX024 (ip), vehicle: saline
  survivor count: 6 of 10
T/C endpoint: mean survival time, dose: 0.4 mg/kg/injection, schedule: Q01DX001 (ip), vehicle: saline
  survivor count: 4 of 10
T/C endpoint: mean survival time, dose: 0.4 mg/kg/injection, schedule: Q04DX003 (ip), vehicle: saline
  survivor count: 2 of 10
T/C endpoint: mean survival time, dose: 0.5 mg/kg/injection, schedule: Q01DX009 (ip), vehicle: saline
  survivor count: 7 of 10
T/C endpoint: mean survival time, dose: 0.5 mg/kg/injection, schedule: Q03HX008 (ip), vehicle: saline
  survivor count: 9 of 10
T/C endpoint: mean survival time, dose: 0.5 mg/kg/injection, schedule: Q03HX024 (ip), vehicle: saline
  survivor count: 5 of 10
T/C endpoint: mean survival time, dose: 0.8 mg/kg/injection, schedule: Q01DX001 (ip), vehicle: saline
  survivor count: 5 of 10
T/C endpoint: mean survival time, dose: 0.8 mg/kg/injection, schedule: Q04DX003 (ip), vehicle: saline
  survivor count: 4 of 10
T/C endpoint: mean survival time, dose: 1.0 mg/kg/injection, schedule: Q01DX009 (ip), vehicle: saline
  survivor count: 9 of 10
T/C endpoint: mean survival time, dose: 1.0 mg/kg/injection, schedule: Q03HX008 (ip), vehicle: saline
  survivor count: 10 of 10
T/C endpoint: mean survival time, dose: 1.0 mg/kg/injection, schedule: Q03HX024 (ip), vehicle: saline
  survivor count: 10 of 10
T/C endpoint: mean survival time, dose: 1.6 mg/kg/injection, schedule: Q01DX001 (ip), vehicle: saline
  survivor count: 4 of 10
T/C endpoint: mean survival time, dose: 1.6 mg/kg/injection, schedule: Q04DX003 (ip), vehicle: saline
  survivor count: 6 of 10
T/C endpoint: mean survival time, dose: 2.0 mg/kg/injection, schedule: Q01DX009 (ip), vehicle: saline
  T/C: 129 and 137 % of control
T/C endpoint: mean survival time, dose: 2.0 mg/kg/injection, schedule: Q03HX008 (ip), vehicle: saline
  survivor count: 9 of 10
T/C endpoint: mean survival time, dose: 3.0 mg/kg/injection, schedule: Q01DX009 (ip), vehicle: water
  T/C: 133 % of control
T/C endpoint: mean survival time, dose: 3.2 mg/kg/injection, schedule: Q01DX001 (ip), vehicle: saline
  survivor count: 6 of 10
T/C endpoint: mean survival time, dose: 4.0 mg/kg/injection, schedule: Q01DX009 (ip), vehicle: saline
  T/C: 139 % of control
T/C endpoint: mean survival time, dose: 4.0 mg/kg/injection, schedule: Q03HX008 (ip), vehicle: saline
  survivor count: 9 of 10
T/C endpoint: mean survival time, dose: 5.0 mg/kg/injection, schedule: Q01DX001 (ip), vehicle: water, evaluated on day 7
  T/C: 132 % of control
T/C endpoint: mean survival time, dose: 5.0 mg/kg/injection, schedule: Q01DX001 (ip), vehicle: water, evaluated on day 20
  T/C: 132 % of control
T/C endpoint: mean survival time, dose: 5.0 mg/kg/injection, schedule: Q01DX009 (ip), vehicle: water
  survivor count: 8 of 8
T/C endpoint: mean survival time, dose: 8.0 mg/kg/injection, schedule: Q01DX009 (ip), vehicle: saline
  survivor count: 6 of 6
T/C endpoint: mean survival time, dose: 8.4 mg/kg/injection, schedule: Q01DX009 (ip), vehicle: water
  survivor count: 5 of 8
T/C endpoint: mean survival time, dose: 10.0 mg/kg/injection, schedule: Q01DX001 (ip), vehicle: water, evaluated on day 7
  T/C: 143 % of control
T/C endpoint: mean survival time, dose: 10.0 mg/kg/injection, schedule: Q01DX001 (ip), vehicle: water, evaluated on day 20
  T/C: 143 % of control
T/C endpoint: mean survival time, dose: 14.0 mg/kg/injection, schedule: Q01DX009 (ip), vehicle: water
  survivor count: 2 of 8
T/C endpoint: median survival time, dose: 1.0 mg/kg/injection, schedule: Q01DX001 (oral), vehicle: saline
  T/C: 131 % of control
T/C endpoint: median survival time, dose: 2.0 mg/kg/injection, schedule: Q01DX001 (oral), vehicle: saline
  T/C: 130 % of control

## OCCN1CCN(CC/C=C2/c3ccccc3Sc3ccc(C(F)(F)F)cc32)CC1
T/C endpoint: mean survival time, dose: 50.0 mg/kg/injection, schedule: Q04DX003 (ip), vehicle: saline
  survivor count: 6 of 6

## O=C1C(Cl)=C(N2CC2)C(=O)C(Cl)=C1N1CC1
T/C endpoint: mean survival time, dose: 20.0 mg/kg/injection, schedule: Q01DX009 (ip), vehicle: saline
  survivor count: 2 of 6 and 3 of 6

## CNC(=O)NC(=O)N(C)N=O
T/C endpoint: mean survival time, dose: 262.0 mg/kg/injection, schedule: Q01DX001 (ip), vehicle: carboxymethylcellulose (CMC)
  survivor count: 9 of 10

## O=NN(CCF)C(=O)NCCCl
T/C endpoint: mean survival time, dose: 48.0 mg/kg/injection, schedule: Q01DX001 (ip), vehicle: Klucel (hydroxypropylcellulose) (HPC)
  survivor count: 6 of 10
T/C endpoint: mean survival time, dose: 71.0 mg/kg/injection, schedule: Q01DX001 (ip), vehicle: Klucel (hydroxypropylcellulose) (HPC)
  survivor count: 5 of 10

## CCOC(=O)C1(NC(=O)N(CCCl)N=O)CCCCC1
T/C endpoint: mean survival time, dose: 125.0 mg/kg/injection, schedule: Q01DX001 (ip), vehicle: other
  T/C: 129 % of control

## O=NN(CCCl)C(=O)NC1CC2CCC1C2 (stereo not given)
T/C endpoint: mean survival time, dose: 14.5 mg/kg/injection, schedule: Q01DX001 (ip), vehicle: other
  T/C: 130 % of control (2×)
T/C endpoint: mean survival time, dose: 18.0 mg/kg/injection, schedule: Q01DX001 (ip), vehicle: carboxymethylcellulose (CMC)
  T/C: 135 % of control
T/C endpoint: mean survival time, dose: 29.0 mg/kg/injection, schedule: Q01DX001 (ip), vehicle: other
  T/C: 157, 164 [9 of 10 alive], 188, 193 % of control
T/C endpoint: mean survival time, dose: 58.0 mg/kg/injection, schedule: Q01DX001 (ip), vehicle: other
  T/C: 326, 329, 333 [9 of 10 alive], 395 % of control

## O=NN(CCCl)C(=O)NC1CCS(=O)(=O)CC1
T/C endpoint: mean survival time, dose: 5.0 mg/kg/injection, schedule: Q01DX001 (ip), vehicle: carboxymethylcellulose (CMC)
  T/C: 141 % of control

## O=NN(CCCl)C(=O)NC1C=CCCC1 (stereo not given)
T/C endpoint: mean survival time, dose: 40.0 mg/kg/injection, schedule: Q01DX001 (ip), vehicle: other
  T/C: 126 % of control

## O=NN(CCCl)C(=O)Nc1ccc2c(c1)CCCC2
T/C endpoint: mean survival time, dose: 55.0 mg/kg/injection, schedule: Q01DX001 (ip), vehicle: carboxymethylcellulose (CMC)
  T/C: 127 and 128 % of control
T/C endpoint: mean survival time, dose: 84.0 mg/kg/injection, schedule: Q01DX001 (ip), vehicle: carboxymethylcellulose (CMC)
  T/C: 142 and 145 % of control
T/C endpoint: mean survival time, dose: 119.0 mg/kg/injection, schedule: Q01DX001 (ip), vehicle: carboxymethylcellulose (CMC)
  T/C: 142 % of control
T/C endpoint: mean survival time, dose: 125.0 mg/kg/injection, schedule: Q01DX001 (ip), vehicle: carboxymethylcellulose (CMC)
  T/C: 144 % of control
T/C endpoint: mean survival time, dose: 187.0 mg/kg/injection, schedule: Q01DX001 (ip), vehicle: carboxymethylcellulose (CMC)
  T/C: 141 % of control
T/C endpoint: mean survival time, dose: 357.0 mg/kg/injection, schedule: Q01DX001 (ip), vehicle: carboxymethylcellulose (CMC)
  survivor count: 1 of 10
T/C endpoint: mean survival time, dose: 476.0 mg/kg/injection, schedule: Q01DX001 (ip), vehicle: carboxymethylcellulose (CMC)
  survivor count: 0 of 10

## O=NN(CCCl)C(=O)NC1CCC(=O)NC1=O (stereo not given)
T/C endpoint: mean survival time, dose: 5.5 mg/kg/injection, schedule: Q01DX001 (ip), vehicle: other
  T/C: 136 % of control
T/C endpoint: mean survival time, dose: 45.0 mg/kg/injection, schedule: Q01DX001 (ip), vehicle: saline with Tween-80
  survivor count: 10 of 10

## NC(=O)N(CCCl)N=O
T/C endpoint: mean survival time, dose: 1.5 mg/kg/injection, schedule: Q01DX001 (ip), vehicle: carboxymethylcellulose (CMC)
  T/C: 126 and 133 % of control
T/C endpoint: mean survival time, dose: 2.25 mg/kg/injection, schedule: Q01DX001 (ip), vehicle: carboxymethylcellulose (CMC)
  T/C: 134 and 139 % of control
T/C endpoint: mean survival time, dose: 3.35 mg/kg/injection, schedule: Q01DX001 (ip), vehicle: carboxymethylcellulose (CMC)
  T/C: 141 and 145 % of control
T/C endpoint: mean survival time, dose: 3.6 mg/kg/injection, schedule: Q01DX001 (ip), vehicle: saline
  T/C: 148 % of control [9 of 10 alive]
T/C endpoint: mean survival time, dose: 7.5 mg/kg/injection, schedule: Q01DX001 (ip), vehicle: carboxymethylcellulose (CMC)
  survivor count: 9 of 10
T/C endpoint: mean survival time, dose: 14.0 mg/kg/injection, schedule: Q01DX001 (ip), vehicle: saline
  survivor count: 9 of 10
T/C endpoint: mean survival time, dose: 14.4 mg/kg/injection, schedule: Q01DX001 (ip), vehicle: saline
  survivor count: 10 of 10
T/C endpoint: mean survival time, dose: 28.8 mg/kg/injection, schedule: Q01DX001 (ip), vehicle: saline
  survivor count: 5 of 10

## C[n+]1ccc(Nc2ccc(NC(=O)c3ccc(Nc4cc[n+](C)c5ccc(N)cc45)cc3)cc2)cc1
T/C endpoint: mean survival time, dose: 16.0 mg/kg/injection, schedule: Q01DX009 (ip), vehicle: Klucel (hydroxypropylcellulose) (HPC)
  T/C: 130 % of control

Source: PubChem BioAssay AID252 (DTP/NCI, 2004)
